Values of other authors, collected in patent US9655865B2, “Therapeutic treatment for metabolic syndrome, type 2 diabetes, obesity, or prediabetes” (VeroScience, LLC, priority 2002, dated 2017).
“Also recorded” adds a separate entry of the source. For at least one compound, name, drawing or mass did not settle the structure.

Tested on: obese, diabetic mice (ob/ob strain)
Details: bromocriptine 5-<10 mg/kg dose, literature, cited from earlier work

## CC(C)C[C@H]1C(=O)N2CCC[C@H]2[C@]2(O)O[C@](NC(=O)[C@@H]3C=C4c5cccc6[nH]c(Br)c(c56)C[C@H]4N(C)C3)(C(C)C)C(=O)N12 [bromocriptine]
10 mg/kg
  effect on blood glucose: no effect; also recorded: not to reduce
  effect on body weight: no effect; also recorded: not to reduce
  effect on feeding: no effect
